Measured values as given in PubChem BioAssay AID540256 (National Center for Advancing Translational Sciences (NCATS), 2011).
Values joined by “and” are separate entries in the source; they are usually repeats but may differ in a detail not shown here. Equal entries are not always repeated. Out of some 300,000 compounds screened, about 3,700 (1.2%) were called active. Inconclusive means that the source gave no clear call. Such entries were picked first, then a sample of the others. The call rests on the fitted dose curve; tested in HEK293 cells. Where the call is inconclusive, the potency comes from a doubtful curve fit.

Assay: qHTS for Inhibitors of binding or entry into cells for Lassa Virus; further: nearly all actives have a fitted effect of over 50% in size
Conditions: Lassa virus pseudotype entry inhibition, cell reporter; activity change, negative = inhibition: at 37.9 µM (top of the series) unless noted
On the % scale 0 is the no-effect control and ±100 the full control effect; potency means the concentration at half of the fitted maximal effect.

Structure (SMILES)	Potency	activity change, negative = inhibition
CSCC[C@H](NC(=O)OC(C)(C)C)c1nnc(SCc2ccccc2)o1	inconclusive: 11.2 µM [inhibitor, partial curve, poor fit]	
CC(C(=O)Nc1ccccn1)N1C(=O)C2C3C=CC(C3)C2C1=O (stereo unspecified)	inconclusive: 0.206 µM [inhibitor, single point]	
CCC(=O)N1CCc2cc(Br)cc(S(=O)(=O)N3CCCC(C(=O)Nc4cccc(F)c4)C3)c21 (stereo unspecified)	inactive	
Cc1ccc(CNC(=O)C(=O)NCC2OCCN2C(=O)c2ccc3c(c2)OCO3)cc1 (stereo unspecified)	inconclusive: 20 µM [inhibitor, partial curve, poor fit]	
COc1ccc(NC(=O)C2C3CCC(O3)C2C(=O)O)c(OC)c1 (stereo unspecified)	inactive	
O=C(NCCC1=CCCCC1)C1COc2ccccc2O1 (stereo unspecified)	inactive	
Cc1ccc(C(=O)Nc2ccccc2C(=O)N2CCCCC2C)cc1 (stereo unspecified)	inconclusive: 15.8 µM [activator, single point]	
COc1ccc(C2N(C(=O)c3ccccc3)CCN2C(=O)c2ccc(C)cc2)cc1 (stereo unspecified)	inconclusive: 18.3 µM [inhibitor, single point]	
O=C(NCCN1CCOCC1)c1cc(-c2ccc(F)cc2)nc2ccccc12	inconclusive: 3.98 µM [activator, single point]	
CCOc1ccc(C(c2c(O)nc(SC)n(C)c2=O)c2c(O)nc(SC)n(C)c2=O)cc1	inactive	
CC(C)CCN1C(=O)c2ccc(C(=O)Nc3ccccn3)cc2C1=O	inconclusive: 1.26 µM [activator, single point]	
CCOc1ccccc1C(=O)Nc1cccc(-c2ccc3nncn3n2)c1	inconclusive: 8.91 µM [inhibitor, partial curve]	
CC(NC(=S)Nc1ccc(Cl)cc1Cl)C(c1cccs1)N1CCCC1 (stereo unspecified)	inconclusive: 35.5 µM [inhibitor, single point]	
O=C(c1ccc(Cl)s1)N1CCN(S(=O)(=O)c2ccc(Cl)cc2)CC1	inactive	
CCOc1ccc(NC(=O)CSc2nc(N3CCOCC3)nc(N3CCOCC3)n2)cc1	inconclusive: 3.55 µM [activator, single point]	
COc1ccc(-c2[nH]c(-c3cccc(OC)c3)nc2SCC(=O)NC2CCCC2)cc1	inconclusive: 29.1 µM [inhibitor, single point] and inconclusive: 22.4 µM [inhibitor, single point]	
Cc1ccc(C2=NC3(CCCC3)N=C2SCC(=O)Nc2ccc3c(c2)OCCO3)cc1	inconclusive: 29.1 µM [inhibitor, single point]	
CCN(Cc1ccccc1)S(=O)(=O)c1cc(C(=O)Nc2cc(Cl)cc(Cl)c2)ccc1F	inconclusive: 10 µM [inhibitor, partial curve, poor fit]	
CCC(=O)N1c2ccccc2[C@@H](N(C(C)=O)c2ccccc2)C[C@H]1C	inconclusive: 20.6 µM [inhibitor, partial curve, poor fit]	
COc1ccccc1N1CCN(c2ncnc3c2cnn3-c2cccc(Cl)c2)CC1	inactive	
CCc1ccccc1NC(=O)C1(C)Cc2ccccc2C(=O)O1 (stereo unspecified)	inactive	
CCN(CC)C(=O)C1CCN(S(=O)(=O)c2ccc3oc4ccccc4c3c2)CC1	inactive	

A different layout for 4 compounds above:
Structure (SMILES) | Potency | activity change, negative = inhibition
CCN(Cc1ccccc1)S(=O)(=O)c1cc(C(=O)Nc2cc(Cl)cc(Cl)c2)ccc1F | inconclusive: 10 µM [inhibitor, partial curve, poor fit] | 
CCC(=O)N1c2ccccc2[C@@H](N(C(C)=O)c2ccccc2)C[C@H]1C | inconclusive: 20.6 µM [inhibitor, partial curve, poor fit] | 
COc1ccccc1N1CCN(c2ncnc3c2cnn3-c2cccc(Cl)c2)CC1 | inactive | 
CCc1ccccc1NC(=O)C1(C)Cc2ccccc2C(=O)O1 (stereo unspecified) | inactive | 

Later entries

Structure (SMILES)	Potency	activity change, negative = inhibition
CN(Cc1ccccc1)Cc1nc2c(c(=O)n(C)c(=O)n2C)n1Cc1ccccc1Cl	inconclusive: 18.3 µM [inhibitor, single point]	
C[C@H](NC(=O)c1ccc(Br)cc1)C(=O)NCc1ccc(S(N)(=O)=O)cc1	inactive	
CC(=O)c1c(C)[nH]c(C(=O)Nc2nccs2)c1C	inconclusive: 11.2 µM [inhibitor, partial curve, poor fit]	
Cc1cccc(C(=O)NC(=S)NNC(=O)c2ccccc2Cl)c1	inconclusive: 20 µM [inhibitor, single point]	
COc1ccc(C(N)CCc2ccco2)cc1 (stereo unspecified)	inactive	
CC(=O)c1sc2nc(CSc3nnnn3-c3ccccc3)[nH]c(=O)c2c1C	inconclusive: 14.1 µM [inhibitor, partial curve, poor fit]	
NC(=O)c1c(NC(NC(=O)c2ccco2)C(=O)c2ccc(Cl)cc2)sc2c1CCCC2 (stereo unspecified)	inactive	
COC(=O)c1ccc(OCC2c3cc(OC)c(OC)cc3CCN2C(=O)Cc2ccccc2)cc1 (stereo unspecified)	inconclusive: 4.47 µM [inhibitor, partial curve]	
Cn1cnnc1SCC(=O)Nc1ccc(C#N)cc1	inactive	
CCN1CCN(C(=O)/C=C/c2ccc(C)o2)CC1	inactive	
O=C(C#Cc1ccccc1)c1ccc([N+](=O)[O-])cc1	inconclusive: 0.631 µM [inhibitor, single point]	
Cn1ccc(C(=O)N/N=C/c2ccncc2)n1	inconclusive: 11.2 µM [activator, single point]	
CCCc1cc(C(=O)Nc2c(C)nn(Cc3c(Cl)cccc3Cl)c2C)no1	active: 3.98 µM	
Cc1cc(C)c(S(=O)(=O)Nc2ccc(-c3ccc(N4CCCCCC4)nn3)cc2)c(C)c1	inactive	
O=C(Nc1ccncc1)c1cc(S(=O)(=O)N2CCCCC2)ccc1Cl	inconclusive: 2.82 µM [inhibitor, partial curve, poor fit]	
COc1ccc(OCC(=O)NCc2ccc3c(c2)CCN3C(=O)c2ccc(F)cc2)cc1	inconclusive: 8.91 µM [inhibitor, partial curve, poor fit]	
O=C(CN1CCN(c2ccccc2O)CC1)NC(c1ccccc1)c1ccccc1	inconclusive: 5.62 µM [inhibitor, partial curve, poor fit]	
CC(C)CC1C(=O)N(Cc2cn(Cc3ccco3)nn2)CCS(=O)(=O)N1Cc1ccc(-c2ccc(F)nc2)cc1 (stereo unspecified)	inconclusive: 25 µM [inhibitor, single point]	
CC(C)CCN(C(=O)CCSc1ccc(F)cc1)c1c(N)n(Cc2ccccc2)c(=O)[nH]c1=O	inconclusive: 15.8 µM [inhibitor, partial curve, poor fit]	
c1ccc(-c2cn(-c3ccccc3)c3[n+]2CCS3)cc1	inconclusive: 11.2 µM [inhibitor, partial curve, poor fit]	
CCc1ccc(-c2nn(CC(=O)NCc3ccccc3)c3c2cnc2ccc(F)cc23)cc1	inactive	
CCN1C(=O)/C(=C/c2nc3ccccc3c(=O)n2-c2ccc(C)cc2)c2ccccc21	inactive	

Structure (SMILES)	Potency	activity change, negative = inhibition
COc1ccc(CCN2C(=O)NC(NS(=O)(=O)c3ccc(NC(C)=O)cc3)(C(F)(F)F)C2=O)cc1OC (stereo unspecified)	inconclusive: 39.8 µM [activator, partial curve, poor fit]	
O=C(C1CCN(S(=O)(=O)c2ccc(Br)s2)CC1)N1CCN(c2ccccc2)CC1	inconclusive: 11.2 µM [inhibitor, partial curve, poor fit] and inconclusive: 17.8 µM [inhibitor, single point]	
CCOC(=O)/C(=N/Nc1ccc(Br)cc1)N1CC(C)OC(C)C1 (stereo unspecified)	inconclusive: 22.4 µM [inhibitor, single point]	
CCOc1ccc(OCc2ccc(C(=O)NCc3ccncc3)o2)cc1	inactive	
COc1cc(NC(=O)c2cc(C(C)C)on2)c(OC)cc1Cl	inconclusive: 29.1 µM [inhibitor, single point]	
Cc1cc(C)n2nc(SCC(=O)N(CC(C)C)c3c(N)n(CC(C)C)c(=O)[nH]c3=O)nc2n1	inactive	
CCN(CC)S(=O)(=O)c1ccc(C(=O)N2CC(=O)Nc3ccc(F)cc3C2c2ccccc2)cc1 (stereo unspecified)	inconclusive: 12.6 µM [inhibitor, partial curve, poor fit]	
CCOc1ccc(N(C(C)C(=O)Nc2cc(Cl)ccc2OC)S(C)(=O)=O)cc1 (stereo unspecified)	inconclusive: 8.91 µM [inhibitor, partial curve, poor fit]	
COc1cccc(/C(C)=N/Nc2ncc(Cl)cc2Cl)c1	inactive	
COc1cccc(CSc2nnc(-c3ccncc3)n2C)c1	inactive	
COc1ccc(C(=O)Nc2ccccc2C(=O)N/N=C/c2ccncc2)cc1OC	inconclusive: 1.12 µM [inhibitor, full curve]	
COc1cc(/C=N/NC(=O)CCC(=O)Nc2ccc(C)cc2)ccc1O	inactive	
CCC1(CC)C(=O)N(C)C(=O)NC1=NC	inconclusive: 2.82 µM [inhibitor, partial curve, poor fit]	
CCn1cc(S(=O)(=O)c2ccccc2)c(=O)c2cc(F)c(N3CCN(c4ccccc4)CC3)cc21	inactive	
COc1ccc(CNC(=O)C2CCN(S(=O)(=O)N3CCC4(CC3)OCCO4)CC2)c(OC)c1		inconclusive: 20.5% [activator]
Cc1cc(C(=O)COC(=O)c2ccc(F)cc2)c(C)n1C	inconclusive: 6.31 µM [activator, single point]	
Cc1ccc(NC(=S)NC2CC3CCC(C2)N3Cc2ccco2)cc1C (stereo unspecified)	inconclusive: 10.3 µM [inhibitor, partial curve, poor fit]	
CNc1nc(-c2ccccc2)nc(-c2ccccc2)c1C#N	inactive	
Cn1c2ccccc2c2cnn(CC(=O)Nc3ccccc3C(F)(F)F)c(=O)c21	inconclusive: 22.4 µM [activator, single point]	
Cc1ccccc1-c1noc(-c2ccc(N3CCOCC3)c([N+](=O)[O-])c2)n1	inactive	
COc1cc(NS(=O)(=O)c2ccc(OC)c(C)c2C)c(OC)cc1Cl	inconclusive: 3.98 µM [inhibitor, partial curve]	
COc1cccc(C2=NOC(C(=O)Nc3cccc(C(C)=O)c3)C2)c1OC (stereo unspecified)	inconclusive: 1.16 µM [activator, full curve, poor fit]	
